This is an account of results in paper PMC10716449.

The target of this assay is CENP-A (human), P49450. Briefly: cryo-EM structure; CENP-A nucleosomes on 601 B-Box DNA (6-10 uM) mixed with a 3-fold molar ratio of full-length CENP-B; 10 mM HEPES pH 7.5, 150 mM NaCl, 2 mM DTT; on ice 30 min; both purified. The following applies: remark: other sources report otherwise.

Results are given in words; binding and its absence hold for the method and conditions named.

B1: full-length CENP-B, P07199 1-599 (protein)
chain: MGPKRRQLTFREKSRIIQEVEENPDLRKGEIARRFNIPPSTLSTILKNKRAILASERKYGVASTCRKTNKLSPYDKLEGLLIAWFQQIRAAGLPVKGIILKEKALRIAEELGMDDFTASNGWLDRFRRRHGVVSCSGVARARARNAAPRTPAAPASPAAVPSEGSGGSTTGWRAREEQPPSVAEGYASQDVFSATETSLWYDFLPDQAAGLCGGDGRPRQATQRLSVLLCANADGSEKLPPLVAGKSAKPRAGQAGLPCDYTANSKGGVTTQALAKYLKALDTRMAAESRRVLLLAGRLAAQSLDTSGLRHVQLAFFPPGTVHPLERGVVQQVKGHYRQAMLLKAMAALEGQDPSGLQLGLTEALHFVAAAWQAVEPSDIAACFREAGFGGGPNATITTSLKSEGEEEEEEEEEEEEEEGEGEEEEEEGEEEEEEGGEGEELGEEEEVEEEGDVDSDEEEEEDEESSSEGLEAEDWAQGVVEAGGSFGAYGAQEEAQCPTLHFLEGGEDSDSDSEEEDDEEEDDEDEDDDDDEEDGDEVPVPSFGEAMAYFAMVKRYLTSFPIDDRVQSHILHLEHDLVHVTRKNHARQAGVRGLGHQS
Consider B1, for which the binding result is “no binding”.
